The supplement of paper PMC10849652
Some of the results follow.

Chains of the proteins cited; added tags and fusions are not shown. Lines headed by an entry give the natural chain unless they say otherwise; changes in a name come on top.
UniProt P55145: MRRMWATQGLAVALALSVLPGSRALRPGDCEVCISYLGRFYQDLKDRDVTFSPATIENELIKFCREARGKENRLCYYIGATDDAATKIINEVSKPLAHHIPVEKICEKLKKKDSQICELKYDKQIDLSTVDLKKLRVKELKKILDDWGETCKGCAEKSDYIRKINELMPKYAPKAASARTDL
UniProt Q6ZN28: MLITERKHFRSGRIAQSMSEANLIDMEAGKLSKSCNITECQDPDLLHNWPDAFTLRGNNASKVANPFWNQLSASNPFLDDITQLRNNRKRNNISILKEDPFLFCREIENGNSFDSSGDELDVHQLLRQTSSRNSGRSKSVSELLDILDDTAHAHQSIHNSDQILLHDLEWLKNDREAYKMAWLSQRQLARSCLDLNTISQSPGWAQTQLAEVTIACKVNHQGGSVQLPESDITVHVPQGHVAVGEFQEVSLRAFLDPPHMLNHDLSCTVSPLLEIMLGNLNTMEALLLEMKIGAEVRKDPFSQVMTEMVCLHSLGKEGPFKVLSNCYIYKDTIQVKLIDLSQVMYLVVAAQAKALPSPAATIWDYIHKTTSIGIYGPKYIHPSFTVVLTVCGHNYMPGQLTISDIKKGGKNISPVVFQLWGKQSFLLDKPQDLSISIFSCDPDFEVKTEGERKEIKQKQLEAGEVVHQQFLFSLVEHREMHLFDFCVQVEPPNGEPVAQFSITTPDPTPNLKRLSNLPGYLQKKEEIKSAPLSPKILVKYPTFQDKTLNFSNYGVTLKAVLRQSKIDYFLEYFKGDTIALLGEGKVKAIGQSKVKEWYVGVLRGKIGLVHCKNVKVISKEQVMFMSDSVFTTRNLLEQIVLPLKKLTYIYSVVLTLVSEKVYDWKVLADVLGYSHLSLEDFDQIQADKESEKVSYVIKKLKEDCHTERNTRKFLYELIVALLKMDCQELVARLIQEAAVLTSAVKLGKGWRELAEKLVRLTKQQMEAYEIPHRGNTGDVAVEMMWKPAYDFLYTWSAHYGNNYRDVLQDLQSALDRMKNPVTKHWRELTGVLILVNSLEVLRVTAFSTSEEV
UniProt O95232: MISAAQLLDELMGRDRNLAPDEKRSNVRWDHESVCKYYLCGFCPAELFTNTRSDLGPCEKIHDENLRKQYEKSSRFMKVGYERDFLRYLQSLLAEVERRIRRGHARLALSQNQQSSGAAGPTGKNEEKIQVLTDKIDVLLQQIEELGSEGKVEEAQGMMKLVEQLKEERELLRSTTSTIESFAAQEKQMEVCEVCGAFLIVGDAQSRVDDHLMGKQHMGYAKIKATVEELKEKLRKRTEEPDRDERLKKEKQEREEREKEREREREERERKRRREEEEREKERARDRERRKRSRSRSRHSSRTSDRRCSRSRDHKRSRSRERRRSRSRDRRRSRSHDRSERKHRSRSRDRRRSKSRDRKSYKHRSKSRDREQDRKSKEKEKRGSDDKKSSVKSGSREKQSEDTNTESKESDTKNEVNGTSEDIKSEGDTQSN
UniProt Q15759, whole entry, looked up: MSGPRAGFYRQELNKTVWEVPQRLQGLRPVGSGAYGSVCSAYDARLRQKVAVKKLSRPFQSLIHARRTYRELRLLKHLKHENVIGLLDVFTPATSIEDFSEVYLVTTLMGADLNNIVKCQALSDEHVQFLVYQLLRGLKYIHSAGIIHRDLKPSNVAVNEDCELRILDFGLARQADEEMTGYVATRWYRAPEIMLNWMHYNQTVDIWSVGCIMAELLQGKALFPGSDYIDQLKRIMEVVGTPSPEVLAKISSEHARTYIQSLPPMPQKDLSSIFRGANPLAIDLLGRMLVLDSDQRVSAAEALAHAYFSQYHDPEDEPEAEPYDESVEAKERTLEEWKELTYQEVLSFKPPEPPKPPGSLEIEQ
UniProt P43358: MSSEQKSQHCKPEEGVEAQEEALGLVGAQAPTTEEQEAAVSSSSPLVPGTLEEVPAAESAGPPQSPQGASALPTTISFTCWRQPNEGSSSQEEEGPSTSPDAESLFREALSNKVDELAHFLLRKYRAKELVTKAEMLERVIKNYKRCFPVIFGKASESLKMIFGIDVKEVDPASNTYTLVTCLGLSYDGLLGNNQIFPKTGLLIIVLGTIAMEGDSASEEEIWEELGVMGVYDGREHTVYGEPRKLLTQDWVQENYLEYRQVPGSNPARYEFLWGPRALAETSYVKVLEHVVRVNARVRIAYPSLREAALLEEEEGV
UniProt Q9Y4K4: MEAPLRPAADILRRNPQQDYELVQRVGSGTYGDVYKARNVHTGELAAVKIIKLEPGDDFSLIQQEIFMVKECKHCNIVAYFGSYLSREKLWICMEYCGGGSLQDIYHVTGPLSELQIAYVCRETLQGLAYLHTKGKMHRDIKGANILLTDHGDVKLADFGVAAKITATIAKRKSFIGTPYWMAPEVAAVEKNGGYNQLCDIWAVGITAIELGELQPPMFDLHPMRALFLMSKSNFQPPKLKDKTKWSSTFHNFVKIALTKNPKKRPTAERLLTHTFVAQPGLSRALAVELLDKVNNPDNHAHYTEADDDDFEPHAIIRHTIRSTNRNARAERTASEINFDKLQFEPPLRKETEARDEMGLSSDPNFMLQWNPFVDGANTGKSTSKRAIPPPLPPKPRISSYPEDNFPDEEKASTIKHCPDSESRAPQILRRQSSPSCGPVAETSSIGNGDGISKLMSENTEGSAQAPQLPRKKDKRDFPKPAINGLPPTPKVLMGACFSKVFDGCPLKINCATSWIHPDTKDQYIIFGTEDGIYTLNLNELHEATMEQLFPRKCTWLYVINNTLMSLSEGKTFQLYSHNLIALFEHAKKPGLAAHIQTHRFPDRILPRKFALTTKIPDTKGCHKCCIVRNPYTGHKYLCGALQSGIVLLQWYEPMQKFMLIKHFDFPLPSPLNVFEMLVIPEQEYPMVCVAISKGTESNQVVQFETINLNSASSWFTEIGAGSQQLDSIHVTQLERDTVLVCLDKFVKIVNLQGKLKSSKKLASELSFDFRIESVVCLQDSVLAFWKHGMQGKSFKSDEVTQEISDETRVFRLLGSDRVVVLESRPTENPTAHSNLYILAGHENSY
UniProt Q99683: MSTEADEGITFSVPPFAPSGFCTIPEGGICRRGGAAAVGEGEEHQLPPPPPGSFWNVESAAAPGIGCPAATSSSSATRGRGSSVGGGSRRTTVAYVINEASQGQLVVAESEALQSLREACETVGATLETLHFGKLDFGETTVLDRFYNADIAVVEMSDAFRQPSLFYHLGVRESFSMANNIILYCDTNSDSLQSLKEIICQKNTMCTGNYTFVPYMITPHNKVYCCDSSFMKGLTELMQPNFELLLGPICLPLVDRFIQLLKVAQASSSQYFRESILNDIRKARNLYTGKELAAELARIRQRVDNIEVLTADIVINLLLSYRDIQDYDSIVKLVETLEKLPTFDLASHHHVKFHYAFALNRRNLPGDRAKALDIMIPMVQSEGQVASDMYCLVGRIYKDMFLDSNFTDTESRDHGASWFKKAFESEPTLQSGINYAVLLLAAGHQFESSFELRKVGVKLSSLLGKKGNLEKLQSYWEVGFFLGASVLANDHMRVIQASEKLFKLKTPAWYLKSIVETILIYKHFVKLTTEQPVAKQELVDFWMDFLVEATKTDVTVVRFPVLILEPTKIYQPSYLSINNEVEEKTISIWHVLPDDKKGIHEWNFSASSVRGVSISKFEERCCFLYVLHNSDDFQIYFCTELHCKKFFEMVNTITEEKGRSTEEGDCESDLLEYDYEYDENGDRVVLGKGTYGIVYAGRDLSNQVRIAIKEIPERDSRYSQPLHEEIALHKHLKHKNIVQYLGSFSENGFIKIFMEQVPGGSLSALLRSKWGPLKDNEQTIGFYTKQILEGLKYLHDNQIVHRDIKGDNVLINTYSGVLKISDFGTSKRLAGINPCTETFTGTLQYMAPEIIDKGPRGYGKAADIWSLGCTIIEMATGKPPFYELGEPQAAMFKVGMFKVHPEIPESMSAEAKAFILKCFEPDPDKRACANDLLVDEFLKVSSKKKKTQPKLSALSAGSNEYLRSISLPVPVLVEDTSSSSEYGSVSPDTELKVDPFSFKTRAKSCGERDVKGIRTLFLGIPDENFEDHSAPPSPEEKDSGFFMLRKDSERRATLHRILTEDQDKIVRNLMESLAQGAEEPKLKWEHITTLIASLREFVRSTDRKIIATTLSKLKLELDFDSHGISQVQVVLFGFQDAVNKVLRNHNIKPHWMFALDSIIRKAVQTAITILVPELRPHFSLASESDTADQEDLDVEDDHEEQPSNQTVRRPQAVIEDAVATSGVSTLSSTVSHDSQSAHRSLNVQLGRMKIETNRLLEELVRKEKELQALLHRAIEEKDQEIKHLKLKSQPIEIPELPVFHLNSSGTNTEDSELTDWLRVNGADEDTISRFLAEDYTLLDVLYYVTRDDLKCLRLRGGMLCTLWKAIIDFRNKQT
UniProt Q13163: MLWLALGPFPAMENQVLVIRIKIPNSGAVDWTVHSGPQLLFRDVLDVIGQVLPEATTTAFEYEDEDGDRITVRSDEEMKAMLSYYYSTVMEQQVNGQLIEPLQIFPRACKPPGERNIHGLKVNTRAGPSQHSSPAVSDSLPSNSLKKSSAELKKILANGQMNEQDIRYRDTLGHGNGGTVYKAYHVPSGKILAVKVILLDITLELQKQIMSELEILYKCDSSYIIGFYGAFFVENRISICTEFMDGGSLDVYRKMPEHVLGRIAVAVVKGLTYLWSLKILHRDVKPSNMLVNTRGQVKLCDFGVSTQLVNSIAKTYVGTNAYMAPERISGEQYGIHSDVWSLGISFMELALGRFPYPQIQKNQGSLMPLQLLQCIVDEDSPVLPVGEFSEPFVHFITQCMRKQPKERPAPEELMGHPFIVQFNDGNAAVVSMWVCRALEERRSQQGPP
UniProt Q16553: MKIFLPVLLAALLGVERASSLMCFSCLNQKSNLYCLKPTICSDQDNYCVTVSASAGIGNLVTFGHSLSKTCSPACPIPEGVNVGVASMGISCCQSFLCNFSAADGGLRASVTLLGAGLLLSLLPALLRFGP
UniProt P10636, whole entry, looked up: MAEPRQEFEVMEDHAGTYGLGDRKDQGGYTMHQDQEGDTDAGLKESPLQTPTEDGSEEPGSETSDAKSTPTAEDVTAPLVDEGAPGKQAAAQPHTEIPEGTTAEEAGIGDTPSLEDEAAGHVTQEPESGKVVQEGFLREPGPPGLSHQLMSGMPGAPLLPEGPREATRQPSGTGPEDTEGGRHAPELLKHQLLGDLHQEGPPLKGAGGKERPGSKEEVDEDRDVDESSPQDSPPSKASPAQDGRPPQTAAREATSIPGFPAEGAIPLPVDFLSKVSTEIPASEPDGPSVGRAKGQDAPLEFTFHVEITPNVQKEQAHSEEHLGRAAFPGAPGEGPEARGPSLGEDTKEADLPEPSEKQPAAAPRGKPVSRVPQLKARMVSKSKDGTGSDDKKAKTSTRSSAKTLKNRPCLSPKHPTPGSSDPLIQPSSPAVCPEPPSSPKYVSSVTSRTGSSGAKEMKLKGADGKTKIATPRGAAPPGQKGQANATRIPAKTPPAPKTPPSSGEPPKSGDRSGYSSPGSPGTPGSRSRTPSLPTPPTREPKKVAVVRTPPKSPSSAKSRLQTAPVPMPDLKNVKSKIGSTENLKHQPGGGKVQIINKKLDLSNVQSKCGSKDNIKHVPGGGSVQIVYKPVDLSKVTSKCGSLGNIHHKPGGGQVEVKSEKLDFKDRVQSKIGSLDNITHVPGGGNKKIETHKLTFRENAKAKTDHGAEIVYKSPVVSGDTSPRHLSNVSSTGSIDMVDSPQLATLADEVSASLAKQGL
UniProt Q16539, whole entry, looked up: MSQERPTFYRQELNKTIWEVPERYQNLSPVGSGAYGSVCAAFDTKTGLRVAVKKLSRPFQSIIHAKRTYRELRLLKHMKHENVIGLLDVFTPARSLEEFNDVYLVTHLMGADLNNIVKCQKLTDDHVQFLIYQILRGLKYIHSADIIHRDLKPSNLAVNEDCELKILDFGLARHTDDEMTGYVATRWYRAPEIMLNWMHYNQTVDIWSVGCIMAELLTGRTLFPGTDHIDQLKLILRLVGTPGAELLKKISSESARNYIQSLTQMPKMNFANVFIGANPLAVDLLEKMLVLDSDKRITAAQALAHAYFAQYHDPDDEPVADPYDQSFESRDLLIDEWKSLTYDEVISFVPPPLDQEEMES

How the values were obtained:
Test in all cases: log2 fold change, soluble protein after heating vs DMSO (PISA); higher = thermal stabilisation; K562 lysate, 10 uM; active = over 0.2 and 3.5 SD of the protein, either way, in both replicates (recomputed)
lapatinib = compound: CS(=O)(=O)CCNCc1ccc(-c2ccc3ncnc(Nc4ccc(OCc5cccc(F)c5)c(Cl)c4)c3c2)o1 [lapatinib]
Outline: (§1)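 To prepare the extract, K562 pellets were dounce-homogenised in PBS pH 7.4 with 1 mM MgCl2, giving crude material at 1 mg/mL protein. This was treated with 10 μM compound for 30 min, then heated in aliquots for 3 min over 48°C-58°C before pooling and addition of NP-40 to 0.5% at 4°C. Centrifugation at 21,000xg for 90 min left soluble protein in the supernatant, which TMTpro 16plex LC-MS/MS quantified with equalised channel sums. Results are log-two fold changes in thermal stability compared with solvent controls, from duplicates.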

pictilisib = compound: CS(=O)(=O)N1CCN(Cc2cc3nc(-c4cccc5[nH]ncc45)nc(N4CCOCC4)c3s2)CC1 [pictilisib]
Outline: as §1

crizotinib = compound: C[C@@H](Oc1cc(-c2cnn(C3CCNCC3)c2)cnc1N)c1c(Cl)ccc(F)c1Cl [crizotinib]
Outline: as §1

[1] = compound: C[C@H](C1=CC=C(C=C1)C(=O)NC2=C3C=CNC3=NC=C2)N
Outline: as §1

duvelisib = compound: C[C@H](Nc1ncnc2nc[nH]c12)c1cc2cccc(Cl)c2c(=O)n1-c1ccccc1 [duvelisib]
Outline: as §1

gandotinib = compound: Cc1cc(Nc2cc(CN3CCOCC3)c3nc(C)c(Cc4ccc(Cl)cc4F)n3n2)n[nH]1 [gandotinib]
Outline: as §1

tozasertib = compound: Cc1cc(Nc2cc(N3CCN(C)CC3)nc(Sc3ccc(NC(=O)C4CC4)cc3)n2)n[nH]1 [tozasertib]
Outline: as §1

doramapimod = compound: Cc1ccc(-n2nc(C(C)(C)C)cc2NC(=O)Nc2ccc(OCCN3CCOCC3)c3ccccc23)cc1 [doramapimod]
Outline: as §1

bafetinib = compound: Cc1ccc(NC(=O)c2ccc(CN3CC[C@H](N(C)C)C3)c(C(F)(F)F)c2)cc1Nc1nccc(-c2cncnc2)n1 [bafetinib]
Outline: as §1

[2] = compound: Cc1cccc(CC(=O)N2CCc3c2ccc(-c2cn(C)c4ncnc(N)c24)c3F)n1
Outline: as §1

nilotinib = compound: Cc1cn(-c2cc(NC(=O)c3ccc(C)c(Nc4nccc(-c5cccnc5)n4)c3)cc(C(F)(F)F)c2)cn1 [nilotinib]
Outline: as §1

[3] = compound: Cc1nc(Nc2n[nH]c3c2CN(C(=O)N[C@H](CN(C)C)c2ccccc2)C3(C)C)c2sccc2n1
Outline: as §1

dasatinib = compound: Cc1nc(Nc2ncc(C(=O)Nc3c(C)cccc3Cl)s2)cc(N2CCN(CCO)CC2)n1 [dasatinib]
Outline: as §1

[4] = compound: Cc1ncc(-c2ccnc(Nc3ccc(S(C)(=O)=O)cc3)n2)n1C(C)C
Outline: as §1

[5] = compound: Cn1cc(-c2ccc3c(c2)CCN3C(=O)Cc2cccc(C(F)(F)F)c2)c2c(N)ncnc21
Outline: as §1

quisinostat = compound: Cn1cc(CNCC2CCN(c3ncc(C(=O)NO)cn3)CC2)c2ccccc21 [quisinostat]
Outline: as §1

tipifarnib = compound: Cn1cncc1[C@@](N)(c1ccc(Cl)cc1)c1ccc2c(c1)c(-c1cccc(Cl)c1)cc(=O)n2C [tipifarnib]
Outline: as §1

[6] = compound: NC(=O)Nc1cc(-c2cccc(F)c2)sc1C(=O)N[C@H]1CCCNC1
Outline: as §1

[7] = compound: NC(=O)c1cnc(N[C@@H]2CCCC[C@@H]2N)nc1Nc1cccc(-n2nccn2)c1
Outline: as §1

[8] = compound: NC1(c2ccc(-c3nc4ccn5c(=O)[nH]nc5c4cc3-c3ccccc3)cc2)CCC1
Outline: as §1

Row | Target | log2 fold change (lapatinib) | log2 fold change (pictilisib) | log2 fold change (crizotinib) | log2 fold change [1] | log2 fold change (duvelisib) | log2 fold change (gandotinib) | log2 fold change (tozasertib) | log2 fold change (doramapimod) | log2 fold change (bafetinib) | log2 fold change [2] | log2 fold change (nilotinib) | log2 fold change [3] | log2 fold change (dasatinib) | log2 fold change [4] | log2 fold change [5] | log2 fold change (quisinostat) | log2 fold change (tipifarnib) | log2 fold change [6] | log2 fold change [7] | log2 fold change [8]
1 | MANF (UniProt P55145) | inactive: 0.014 | inactive: -0.025 | inactive: 0.037 | inactive: -0.045 | inactive: 0.053 | inactive: 0.068 | inactive: -0.03 | inactive: -0.047 | inactive: 0.094 | inactive: -0.026 | inactive: -0.002 | inactive: -0.013 | inactive: 0.011 | inactive: -0.015 | inactive: -0.005 | inactive: -0.012 | inactive: -0.05 | inactive: -0.014 | inactive: 0.002 | inactive: 0.024
2 | MACC1 (UniProt Q6ZN28) | inactive: -0.041 | inactive: -0.094 | inactive: -0.067 | inactive: 0.034 | inactive: 0.003 | inactive: -0.031 | inactive: -0.049 | inactive: 0.072 | inactive: -0.153 | inactive: 0.053 | inactive: -0.014 | inactive: -0.074 | inactive: -0.073 | inactive: 0.005 | inactive: 0.057 | inactive: -0.045 | inactive: -0.016 | inactive: 0.032 | inactive: -0.043 | inactive: 0.02
3 | LUC7L3 (UniProt O95232) | inactive: 0.012 | inactive: 0.026 | inactive: 0.02 | inactive: -0.085 | inactive: 0.018 | inactive: -0.038 | inactive: -0.001 | inactive: 0.048 | inactive: -0.037 | inactive: 0.039 | inactive: -0.01 | inactive: -0.033 | inactive: -0.013 | inactive: -0.007 | inactive: 0.001 | inactive: -0.051 | inactive: -0.024 | inactive: -0.062 | inactive: 0.012 | inactive: -0.055
4 | MAPK11 (UniProt Q15759) | inactive: 0.072 | inactive: -0.094 | inactive: -0.093 |  |  |  |  |  | inactive: 0.27 |  | inactive: 0.611 | inactive: -0.026 |  | inactive: 0.321 |  | inactive: -0.096 | inactive: -0.125 | inactive: -0.24 | inactive: 0.147 | inactive: -0.091
5 | MAP4 (UniProt E7EVA0) | inactive: 0.002 | inactive: -0.054 | inactive: -0.163 | inactive: -0.096 | inactive: 0.012 | inactive: 0.007 | inactive: 0.055 | inactive: 0.017 | inactive: -0.055 | inactive: 0.008 | inactive: 0.073 | inactive: 0.021 | inactive: -0.009 | inactive: 0.046 | inactive: 0.057 | active: -0.271 | inactive: -0.031 | inactive: 0.024 | inactive: 0.016 | inactive: -0.1
6 | MAGEA4 (UniProt P43358) | inactive: -0.048 |  | inactive: -0.089 | inactive: 0.01 | inactive: 0.051 | inactive: 0.009 | inactive: 0.015 | inactive: 0.013 |  | inactive: -0.159 | inactive: 0.056 | inactive: -0.085 | inactive: 0.005 | inactive: 0 | inactive: 0 | inactive: -0.035 | inactive: 0.034 | inactive: 0.031 | inactive: -0.001 | inactive: -0.115
7 | MAP4K5 (UniProt Q9Y4K4) | inactive: -0.035 | inactive: 0.044 |  | inactive: 0.013 | inactive: -0.021 | inactive: 0.055 | inactive: 0.152 | inactive: -0.04 | inactive: -0.046 | inactive: 0.112 | inactive: -0.035 | inactive: 0 | active: 0.528 | inactive: -0.007 | inactive: 0.105 | inactive: -0.245 | inactive: 0.082 | active: 0.468 | inactive: -0.029 | inactive: 0.11
8 | MAP3K5 (UniProt Q99683) | inactive: -0.059 | inactive: 0.112 | inactive: -0.415 | inactive: 0.072 |  | inactive: 0.065 | inactive: 0.055 | inactive: -0.003 | inactive: -0.087 | inactive: 0.147 | inactive: -0.14 | inactive: -0.134 |  | inactive: 0.065 |  | inactive: 0 | inactive: 0.2 | inactive: 0.367 | inactive: -0.091 | 
9 | MAP2K5 (UniProt Q13163) | inactive: 0.038 | inactive: -0.021 | inactive: -0.109 | inactive: 0.013 | inactive: 0.152 | inactive: -0.089 |  | inactive: -0.017 | inactive: -0.436 | inactive: 0.105 | inactive: 0.019 | inactive: -0.086 | inactive: -0.229 | inactive: -0.143 | inactive: 0.079 | inactive: -0.152 | inactive: -0.015 | active: 0.925 | inactive: 0.035 | inactive: -0.048
10 | LY6E (UniProt Q16553) | inactive: -0.026 | inactive: 0.071 |  | active: -1.51 |  | inactive: 0.412 | inactive: 0.079 |  | inactive: -0.2 | inactive: 0.588 | inactive: -0.141 | inactive: 0.031 |  | inactive: 0.056 |  |  | inactive: 0.033 |  | inactive: 0.08 | 
11 | MAPT isoform 7 (UniProt P10636) | inactive: 0.018 |  | inactive: 0.043 | inactive: 0 |  | inactive: 0.101 |  | inactive: 0.024 |  | inactive: 0.011 |  |  |  |  |  | inactive: 0 |  | inactive: 0.066 | inactive: -0.03 | 
12 | MAPK14 isoform 2 (UniProt Q16539) | inactive: -0.008 | inactive: -0.054 | inactive: -0.028 | inactive: 0.222 | inactive: -0.026 | inactive: -0.086 | inactive: 0.001 |  | inactive: 0.765 | inactive: -0.122 | inactive: 0.523 | inactive: 0.041 | active: 0.879 | inactive: 0.037 | inactive: 0.033 | inactive: -0.031 | inactive: -0.039 | inactive: -0.035 | inactive: 0.076 | inactive: -0.018

2 entries drawn at random from the list so far, as already listed:
Row | Target | log2 fold change (lapatinib) | log2 fold change (pictilisib) | log2 fold change (crizotinib) | log2 fold change [1] | log2 fold change (duvelisib) | log2 fold change (gandotinib) | log2 fold change (tozasertib) | log2 fold change (doramapimod) | log2 fold change (bafetinib) | log2 fold change [2] | log2 fold change (nilotinib) | log2 fold change [3] | log2 fold change (dasatinib) | log2 fold change [4] | log2 fold change [5] | log2 fold change (quisinostat) | log2 fold change (tipifarnib) | log2 fold change [6] | log2 fold change [7] | log2 fold change [8]
12 | MAPK14 isoform 2 (UniProt Q16539) | inactive: -0.008 | inactive: -0.054 | inactive: -0.028 | inactive: 0.222 | inactive: -0.026 | inactive: -0.086 | inactive: 0.001 |  | inactive: 0.765 | inactive: -0.122 | inactive: 0.523 | inactive: 0.041 | active: 0.879 | inactive: 0.037 | inactive: 0.033 | inactive: -0.031 | inactive: -0.039 | inactive: -0.035 | inactive: 0.076 | inactive: -0.018
4 | MAPK11 (UniProt Q15759) | inactive: 0.072 | inactive: -0.094 | inactive: -0.093 |  |  |  |  |  | inactive: 0.27 |  | inactive: 0.611 | inactive: -0.026 |  | inactive: 0.321 |  | inactive: -0.096 | inactive: -0.125 | inactive: -0.24 | inactive: 0.147 | inactive: -0.091
